Assay results from patent US7977455 (dated 2011).

Assay: general procedure: Boc solid-phase peptide synthesis; MBHA resin (Peninsula), 0.91 mmol/g; PAM resin for C-terminal acids; HBTU/DIEA
Conditions: whole synthesis, analytical HPLC, scale of the general procedure 0.20 mmol

In the case of (Aib^8,35, Nal^19,31)hGLP-1(7-36)NH2, the “final HPLC purity” value is reported as 94%.
In the case of “(Aib^8, β-Ala^35, D-Arg^37)hGLP-1(7-37)NH2”, the “final HPLC purity” value is reported as 94.30%.
For “(Aib^8,35, Arg^26,34, Lys^36(N^ε-octanoyl))hGLP-1(7-36)NH2”, the “final HPLC purity” value was 99%.
With “(Aib^8, β-Ala^35, Ser^37(O-decanoyl))hGLP-1(7-37)NH2” the “final HPLC purity” value was 99%.
With (Aib^8,25,35)hGLP-1(7-36)NH2 the “final HPLC purity” value was 99%.
In the case of “(Aib^8, Glu^23, β-Ala^35)hGLP-1(7-36)NH2”, the “final HPLC purity” value is reported as 99%.
For (Aib^8,27, β-Ala^35)hGLP-1(7-36)NH2, the “final HPLC purity” value was 98%.
For “(Aib^8,35, Arg^34, Lys^26(N^ε-decanoyl))hGLP-1(7-36)NH2”, the “final HPLC purity” value was 93%.
For “(Aib^8, Lys^18,27, β-Ala^35)hGLP-1(7-36)NH2”, the “final HPLC purity” value was 97%.
With “(Aib^8,35, Lys^36(N^ε-decanoyl))hGLP-1(7-36)NH2” the “final HPLC purity” value was 97.40%.
With (Aib^8,35, Nal^12,31)hGLP-1(7-36)NH2 the “final HPLC purity” value was 99%.
For “(Aib^8,35, Arg^26,34, Lys^36(N^ε-decanoyl))hGLP-1(7-36)OH”, the “final HPLC purity” value was 99%.
In the case of “(Aib^8, Leu^27, β-Ala^35)hGLP-1(7-36)NH2”, the “final HPLC purity” value is reported as 99%.
In the case of (Ser^8, β-Ala^35)hGLP-1(7-36)NH2, the “final HPLC purity” value is reported as 98%.
In the case of “(Aib^8,35, Arg^26,34, Aun^37)hGLP-1(7-37)NH2”, the “final HPLC purity” value is reported as 97.90%.
In the case of “(Aib^8, β-Ala^35, Arg^38)hGLP-1(7-38)NH2”, the “final HPLC purity” value is reported as 93%.
For (Aib^8,35, Phe^31)hGLP-1(7-36)NH2, the “final HPLC purity” value was 93%.
In the case of “(Aib^8,27, β-Ala^35,37, Arg^38,39)hGLP-1(7-39)NH2”, the “final HPLC purity” value is reported as 99%.
In the case of “(Aib^8, Lys^33, β-Ala^35)hGLP-1(7-36)NH2”, the “final HPLC purity” value is reported as 97.70%.
In the case of “(Aib^8, Arg^26,34, β-Ala^35, Lys^37(N^ε-octanoyl))hGLP-1(7-37)NH2”, the “final HPLC purity” value is reported as 99%.
In the case of “(Aib^8, Arg^26,34, β-Ala^35, Lys^37(N^ε-decanoyl))hGLP-1(7-37)NH2”, the “final HPLC purity” value is reported as 99%.
With “(Aib^8,35, Arg^26,34, Ava^37, Ado^38)hGLP-1(7-38)NH2” the “final HPLC purity” value was 98%.
In the case of “(Aib^8, Arg^26,34, β-Ala^35, Lys^37(N^ε-dodecanoyl))hGLP-1(8-37)NH2”, the “final HPLC purity” value is reported as 99%.
With (Aib^8,35)hGLP-1(7-36)NH2 the “final HPLC purity” value was 94%.
For “(Aib^8, Glu^22,23, β-Ala^35)hGLP-1(7-36)NH2”, the “final HPLC purity” value was 97.50%.
With “(Aib^8,35, Lys^25, Arg^26,34, Lys^36(N^ε-decanoyl))hGLP-1(7-36)OH” the “final HPLC purity” value was 95%.
With “(Aib^8, Arg^26,34, β-Ala^35)hGLP-1(7-36)NH2” the “final HPLC purity” value was 97%.
For (Aib^8,35, Arg^26,34,)hGLP-1(7-36)NH2, the “final HPLC purity” value was 96%.
In the case of “(Aib^8,35, Arg^26,34, Phe^31)hGLP-1(7-36)NH2”, the “final HPLC purity” value is reported as 99%.
With “(Aib^8, Lys^18, β-Ala^35)hGLP-1(7-36)NH2” the “final HPLC purity” value was 97%.
With “(Aib^8, β-Ala^35, Arg^37)hGLP-1(7-37)NH2” the “final HPLC purity” value was 90%.
In the case of “(Aib^8, Arg^26,34, β-Ala^35, D-Asp^37, Ava^38, Aun^39)hGLP-1(7-39)NH2”, the “final HPLC purity” value is reported as 94%.
For “(Aib^8, Arg^26,34, β-Ala^35, Lys^37(N^ε-tetradecanoyl))hGLP-1(7-37)NH2”, the “final HPLC purity” value was 99%.
With (Aib^8,35, Nal^28,31)hGLP-1(7-36)NH2 the “final HPLC purity” value was 99%.
In the case of (Aib^8, D-Arg^35)hGLP-1(7-36)NH2, the “final HPLC purity” value is reported as 99%.
With “(Aib^8,27, β-Ala^35,37, Arg^38, Lys^39(N^ε-octanoyl))hGLP-1(7-39)NH2” the “final HPLC purity” value was 95%.
For (Aib^8,35, Glu^23)hGLP-1(7-36)NH2, the “final HPLC purity” value was 99%.
In the case of “(Aib^8,35, Arg^26,34, Asp^37, Ava^38, Ado^39)hGLP-1(7-39)NH2”, the “final HPLC purity” value is reported as 98%.
For (Gly^8: β-Ala^35)hGLP-1(7-36)NH2, the “final HPLC purity” value was 99%.
For (Aib^8,35, Nal^31)hGLP-1(7-36)NH3, the “final HPLC purity” value was 99%.
With “(Aib^8, Lys^18, Leu^27, β-Ala^35)hGLP-1(7-36)NH2” the “final HPLC purity” value was 97.20%.
In the case of “(Aib^8,35, Arg^26,34, Nal^31)hGLP-1(7-36)NH2”, the “final HPLC purity” value is reported as 99%.
With “(Aib^8, Arg^26,34, β-Ala^35, Lys^37(N^ε-dodecanoyl))hGLP-1(7-37)NH2” the “final HPLC purity” value was 99%.
With (Gly^8, Aib^35)hGLP-1(7-36)NH2 the “final HPLC purity” value was 93%.
For “((Nα-HEPES-His)^7, Aib^8,35)hGLP-1(7-36)NH2”, the “final HPLC purity” value was 99%.
With “(Aib^8, Phe^31, β-Ala^35)hGLP-1(7-36)NH2” the “final HPLC purity” value was 99.20%.
In the case of “(Aib^8,27, β-Ala^35,37, Arg^38)hGLP-1(7-38)NH2”, the “final HPLC purity” value is reported as 99.40%.
For “(Aib^8, Lys^27, β-Ala^35)hGLP-1(7-36)NH2”, the “final HPLC purity” value was 95%.
In the case of (Aib^8,24,35)hGLP-1(7-36)NH2, the “final HPLC purity” value is reported as 99%.
With “(Aib^8,35, Arg^26,34, Lys^36(N^ε-dodecanoyl))hGLP-1(7-36)NH2” the “final HPLC purity” value was 98%.
In the case of (Aib^8,35, A6c^32)hGLP-1(7-36)NH2, the “final HPLC purity” value is reported as 88%.
In the case of “(Aib^8,35, Glu^23, A6c^32)hGLP-1(7-36)NH2”, the “final HPLC purity” value is reported as 97%.
With (Aib^8, D-Arg^36)hGLP-1(7-36)NH2 the “final HPLC purity” value was 92%.
